# Measured values reported in publication PMC10533640.
# By UniProt entry, the sequences of proteins in these tests, tags left out.
# UniProt Q15836: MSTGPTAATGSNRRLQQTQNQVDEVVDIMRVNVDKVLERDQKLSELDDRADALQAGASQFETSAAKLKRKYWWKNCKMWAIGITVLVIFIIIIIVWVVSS
# No constants are given. Whether binding was seen depends on the method and setting. In cells and extracts the contact can be indirect. Some entries that bind do so weakly or less than the wild type.
# How the values were obtained:
# [1] = target: galectin-9 (endogenous, monocyte-derived dendritic cells) (human (endogenous in moDCs)) (UniProt O00182); test: co-IP; moDC lysate (1% Brij97, 150 mM NaCl, 10 mM Tris-HCl pH 7.5, 2 mM MgCl2, 2 mM CaCl2), IP with anti-galectin-9 or isotype control, 4 °C, blot for Vamp-3 and galectin-9; resting and LPS-activated cells
# [2] = target: galectin-9 (endogenous, THP-1 cells) (human (endogenous in THP-1)) (UniProt O00182); test: co-IP; THP-1 cells transfected with empty vector or 3xFLAG_Vamp-3, lysate (1% Brij97, 150 mM NaCl, 25 mM Tris-HCl pH 7.5, 2 mM EDTA), IP with anti-galectin-9 or goat isotype control, protein G sepharose, 4 °C, blot for FLAG and galectin-9
Substance,binding [1],binding [2]
"vesicle-associated membrane protein 3 (Vamp-3) (endogenous, monocyte-derived dendritic cells) (from UniProt Q15836 1-100)",binds,–
3 × FLAG_Vamp-3 (from UniProt Q15836 1-100),–,binds
